# From article PMC9462884, “Tensin3 interaction with talin drives the formation of fibronectin-associated fibrillar adhesions” (The Journal of Cell Biology, 2022)
# Sequences of proteins named here, by UniProt entry; tags and fusion partners are left off.
# UniProt Q68CZ2: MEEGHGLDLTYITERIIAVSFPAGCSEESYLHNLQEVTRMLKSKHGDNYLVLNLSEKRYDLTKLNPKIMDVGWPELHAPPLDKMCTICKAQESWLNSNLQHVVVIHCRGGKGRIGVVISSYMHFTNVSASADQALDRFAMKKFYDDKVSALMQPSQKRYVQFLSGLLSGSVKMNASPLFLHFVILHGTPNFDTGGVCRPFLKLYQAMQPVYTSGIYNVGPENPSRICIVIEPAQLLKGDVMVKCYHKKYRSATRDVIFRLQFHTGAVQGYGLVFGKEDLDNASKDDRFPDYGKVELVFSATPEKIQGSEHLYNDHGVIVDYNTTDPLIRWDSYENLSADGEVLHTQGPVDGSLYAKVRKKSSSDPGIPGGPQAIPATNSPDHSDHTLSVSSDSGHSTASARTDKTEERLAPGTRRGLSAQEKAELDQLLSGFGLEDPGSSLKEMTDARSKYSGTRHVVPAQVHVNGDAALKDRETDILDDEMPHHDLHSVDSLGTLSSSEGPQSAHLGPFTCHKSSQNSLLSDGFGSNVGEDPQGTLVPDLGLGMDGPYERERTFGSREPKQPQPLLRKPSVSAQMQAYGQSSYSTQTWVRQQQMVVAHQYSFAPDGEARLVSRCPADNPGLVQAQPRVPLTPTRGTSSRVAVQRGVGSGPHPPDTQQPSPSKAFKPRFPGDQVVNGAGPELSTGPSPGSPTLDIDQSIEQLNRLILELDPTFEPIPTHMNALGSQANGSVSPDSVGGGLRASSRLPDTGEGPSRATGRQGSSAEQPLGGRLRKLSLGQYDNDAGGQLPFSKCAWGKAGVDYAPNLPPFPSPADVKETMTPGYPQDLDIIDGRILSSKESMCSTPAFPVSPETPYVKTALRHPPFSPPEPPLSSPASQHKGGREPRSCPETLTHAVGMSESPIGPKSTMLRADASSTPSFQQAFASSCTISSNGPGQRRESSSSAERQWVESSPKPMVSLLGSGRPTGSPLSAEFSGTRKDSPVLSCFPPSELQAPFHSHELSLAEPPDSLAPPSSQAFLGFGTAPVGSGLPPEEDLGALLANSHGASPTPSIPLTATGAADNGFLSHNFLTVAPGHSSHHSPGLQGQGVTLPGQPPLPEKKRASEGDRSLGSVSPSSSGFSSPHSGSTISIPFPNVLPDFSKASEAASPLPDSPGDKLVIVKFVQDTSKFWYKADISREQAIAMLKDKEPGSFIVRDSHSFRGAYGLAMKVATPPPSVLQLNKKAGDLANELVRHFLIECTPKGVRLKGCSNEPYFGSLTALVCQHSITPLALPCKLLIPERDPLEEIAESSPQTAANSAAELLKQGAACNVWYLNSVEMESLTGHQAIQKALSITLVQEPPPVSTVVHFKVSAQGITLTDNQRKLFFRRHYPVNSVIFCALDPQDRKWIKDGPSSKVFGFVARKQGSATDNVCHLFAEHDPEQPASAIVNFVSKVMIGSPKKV
# UniProt Q9Y490: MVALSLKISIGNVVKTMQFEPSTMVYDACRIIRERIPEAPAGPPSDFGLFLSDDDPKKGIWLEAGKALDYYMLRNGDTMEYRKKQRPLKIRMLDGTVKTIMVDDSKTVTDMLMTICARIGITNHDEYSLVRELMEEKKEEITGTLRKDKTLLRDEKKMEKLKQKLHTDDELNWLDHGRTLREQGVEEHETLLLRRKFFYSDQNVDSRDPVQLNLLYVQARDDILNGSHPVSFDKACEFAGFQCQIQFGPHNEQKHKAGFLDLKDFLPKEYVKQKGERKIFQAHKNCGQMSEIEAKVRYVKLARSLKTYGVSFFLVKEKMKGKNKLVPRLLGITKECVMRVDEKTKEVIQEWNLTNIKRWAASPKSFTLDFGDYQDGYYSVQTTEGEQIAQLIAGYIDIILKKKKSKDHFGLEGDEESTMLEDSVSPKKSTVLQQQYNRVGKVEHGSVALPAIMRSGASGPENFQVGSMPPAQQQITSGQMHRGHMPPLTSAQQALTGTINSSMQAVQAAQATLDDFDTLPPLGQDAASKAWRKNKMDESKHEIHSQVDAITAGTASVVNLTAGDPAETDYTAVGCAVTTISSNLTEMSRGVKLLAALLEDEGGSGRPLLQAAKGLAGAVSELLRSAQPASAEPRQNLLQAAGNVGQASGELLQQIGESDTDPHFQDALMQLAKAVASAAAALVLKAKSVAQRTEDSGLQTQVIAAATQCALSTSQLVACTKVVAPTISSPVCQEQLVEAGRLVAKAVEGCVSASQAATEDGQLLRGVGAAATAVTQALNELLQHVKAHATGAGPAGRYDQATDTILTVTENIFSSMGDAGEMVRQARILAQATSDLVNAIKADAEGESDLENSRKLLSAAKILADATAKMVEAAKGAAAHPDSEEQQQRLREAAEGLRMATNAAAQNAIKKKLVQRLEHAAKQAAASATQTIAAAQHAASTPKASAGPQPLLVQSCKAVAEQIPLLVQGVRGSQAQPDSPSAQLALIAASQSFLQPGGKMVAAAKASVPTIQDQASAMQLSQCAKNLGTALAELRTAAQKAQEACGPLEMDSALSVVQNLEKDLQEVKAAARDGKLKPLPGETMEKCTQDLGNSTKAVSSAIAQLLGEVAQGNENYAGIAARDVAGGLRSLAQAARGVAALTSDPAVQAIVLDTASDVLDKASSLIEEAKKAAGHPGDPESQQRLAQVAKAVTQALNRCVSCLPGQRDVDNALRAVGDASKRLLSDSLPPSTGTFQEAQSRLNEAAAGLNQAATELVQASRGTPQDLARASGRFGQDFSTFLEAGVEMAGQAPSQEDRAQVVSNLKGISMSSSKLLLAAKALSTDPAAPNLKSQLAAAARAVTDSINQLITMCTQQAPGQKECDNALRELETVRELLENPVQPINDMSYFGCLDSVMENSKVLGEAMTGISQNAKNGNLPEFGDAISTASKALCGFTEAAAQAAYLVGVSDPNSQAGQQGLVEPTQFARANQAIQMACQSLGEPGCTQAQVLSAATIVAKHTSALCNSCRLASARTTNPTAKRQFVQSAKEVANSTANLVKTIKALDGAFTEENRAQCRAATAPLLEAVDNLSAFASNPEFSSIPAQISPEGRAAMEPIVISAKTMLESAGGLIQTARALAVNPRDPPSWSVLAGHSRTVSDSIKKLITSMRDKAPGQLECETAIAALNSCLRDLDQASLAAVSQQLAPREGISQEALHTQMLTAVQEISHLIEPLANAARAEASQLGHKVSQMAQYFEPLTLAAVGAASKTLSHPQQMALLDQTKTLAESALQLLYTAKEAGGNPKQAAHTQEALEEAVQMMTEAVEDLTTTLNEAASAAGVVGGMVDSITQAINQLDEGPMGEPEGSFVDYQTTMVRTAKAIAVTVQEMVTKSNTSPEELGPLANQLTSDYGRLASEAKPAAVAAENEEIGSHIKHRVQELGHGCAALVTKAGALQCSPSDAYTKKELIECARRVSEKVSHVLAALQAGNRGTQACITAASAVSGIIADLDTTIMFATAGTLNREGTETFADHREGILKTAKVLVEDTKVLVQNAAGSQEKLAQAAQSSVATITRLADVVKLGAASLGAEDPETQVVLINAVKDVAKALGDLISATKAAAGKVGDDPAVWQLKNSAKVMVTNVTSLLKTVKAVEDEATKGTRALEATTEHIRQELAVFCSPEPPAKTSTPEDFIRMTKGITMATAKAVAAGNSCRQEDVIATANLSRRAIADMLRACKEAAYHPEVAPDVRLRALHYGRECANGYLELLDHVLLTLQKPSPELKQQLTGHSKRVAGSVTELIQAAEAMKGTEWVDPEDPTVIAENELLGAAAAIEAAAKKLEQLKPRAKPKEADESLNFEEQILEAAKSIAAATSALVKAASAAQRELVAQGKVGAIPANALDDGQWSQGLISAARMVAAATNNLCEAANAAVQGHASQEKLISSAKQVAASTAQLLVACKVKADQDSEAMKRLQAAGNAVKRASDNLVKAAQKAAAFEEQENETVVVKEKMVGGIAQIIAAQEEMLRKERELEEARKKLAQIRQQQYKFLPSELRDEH
# UniProt Q9Y4G6: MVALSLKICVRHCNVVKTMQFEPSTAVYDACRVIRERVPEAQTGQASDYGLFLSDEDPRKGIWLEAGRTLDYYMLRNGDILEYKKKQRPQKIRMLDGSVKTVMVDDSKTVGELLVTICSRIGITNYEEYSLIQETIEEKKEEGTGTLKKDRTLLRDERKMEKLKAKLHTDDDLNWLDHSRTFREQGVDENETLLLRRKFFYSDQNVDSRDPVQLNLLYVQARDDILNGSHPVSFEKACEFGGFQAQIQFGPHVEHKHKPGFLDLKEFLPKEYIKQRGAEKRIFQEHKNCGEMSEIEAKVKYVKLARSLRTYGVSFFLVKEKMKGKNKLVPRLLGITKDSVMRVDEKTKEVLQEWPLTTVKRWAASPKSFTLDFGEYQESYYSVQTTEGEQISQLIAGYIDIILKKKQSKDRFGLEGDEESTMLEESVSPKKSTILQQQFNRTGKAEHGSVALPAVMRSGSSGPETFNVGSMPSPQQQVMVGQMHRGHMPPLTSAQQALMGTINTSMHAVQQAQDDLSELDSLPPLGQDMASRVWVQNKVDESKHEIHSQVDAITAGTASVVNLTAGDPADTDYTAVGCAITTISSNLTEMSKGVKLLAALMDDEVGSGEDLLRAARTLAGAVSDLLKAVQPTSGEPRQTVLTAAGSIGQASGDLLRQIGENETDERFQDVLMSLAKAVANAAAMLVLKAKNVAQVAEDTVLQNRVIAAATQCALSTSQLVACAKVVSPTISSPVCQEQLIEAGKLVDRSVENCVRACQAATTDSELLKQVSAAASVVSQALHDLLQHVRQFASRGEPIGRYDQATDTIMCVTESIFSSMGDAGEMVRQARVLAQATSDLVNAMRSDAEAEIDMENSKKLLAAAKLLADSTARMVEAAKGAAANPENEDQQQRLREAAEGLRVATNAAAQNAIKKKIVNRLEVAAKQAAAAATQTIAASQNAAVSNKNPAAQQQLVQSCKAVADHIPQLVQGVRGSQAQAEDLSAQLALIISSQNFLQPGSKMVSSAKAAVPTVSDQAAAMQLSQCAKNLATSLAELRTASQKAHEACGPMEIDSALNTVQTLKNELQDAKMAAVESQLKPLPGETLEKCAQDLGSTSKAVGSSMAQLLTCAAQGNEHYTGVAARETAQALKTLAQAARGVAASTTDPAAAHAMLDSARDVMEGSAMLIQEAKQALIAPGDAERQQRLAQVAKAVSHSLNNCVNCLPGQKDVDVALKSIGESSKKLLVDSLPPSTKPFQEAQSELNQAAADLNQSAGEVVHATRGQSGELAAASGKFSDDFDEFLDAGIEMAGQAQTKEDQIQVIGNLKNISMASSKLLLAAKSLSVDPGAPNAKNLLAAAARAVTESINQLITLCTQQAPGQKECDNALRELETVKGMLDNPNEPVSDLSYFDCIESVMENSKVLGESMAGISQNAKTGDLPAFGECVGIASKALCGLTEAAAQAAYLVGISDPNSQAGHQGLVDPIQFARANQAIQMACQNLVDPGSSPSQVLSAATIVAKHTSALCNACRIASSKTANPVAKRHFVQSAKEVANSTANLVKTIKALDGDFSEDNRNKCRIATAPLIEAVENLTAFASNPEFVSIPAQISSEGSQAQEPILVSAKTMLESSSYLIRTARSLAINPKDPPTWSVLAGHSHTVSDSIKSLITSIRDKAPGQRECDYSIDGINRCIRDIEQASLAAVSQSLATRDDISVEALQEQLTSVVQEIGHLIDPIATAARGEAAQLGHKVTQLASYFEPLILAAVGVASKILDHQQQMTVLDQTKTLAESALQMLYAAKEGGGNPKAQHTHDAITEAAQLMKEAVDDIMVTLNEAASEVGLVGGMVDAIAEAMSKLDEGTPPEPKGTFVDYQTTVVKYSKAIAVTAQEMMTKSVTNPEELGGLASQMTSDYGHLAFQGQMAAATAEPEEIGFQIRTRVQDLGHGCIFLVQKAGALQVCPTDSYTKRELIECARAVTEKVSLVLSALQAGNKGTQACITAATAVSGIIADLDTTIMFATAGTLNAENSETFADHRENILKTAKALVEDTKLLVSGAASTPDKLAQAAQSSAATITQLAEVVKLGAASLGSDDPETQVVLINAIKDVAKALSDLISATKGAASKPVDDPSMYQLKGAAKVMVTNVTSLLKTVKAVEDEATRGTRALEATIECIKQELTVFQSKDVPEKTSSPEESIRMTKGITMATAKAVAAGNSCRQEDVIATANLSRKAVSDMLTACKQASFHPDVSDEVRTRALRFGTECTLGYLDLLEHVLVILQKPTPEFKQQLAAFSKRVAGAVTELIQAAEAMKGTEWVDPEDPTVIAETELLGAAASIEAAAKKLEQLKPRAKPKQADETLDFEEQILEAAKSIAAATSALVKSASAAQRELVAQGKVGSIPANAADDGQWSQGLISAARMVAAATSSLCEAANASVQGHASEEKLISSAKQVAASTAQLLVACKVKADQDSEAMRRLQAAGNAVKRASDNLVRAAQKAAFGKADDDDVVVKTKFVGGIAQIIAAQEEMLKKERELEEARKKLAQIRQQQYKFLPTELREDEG
# Molecular target: BirA-tensin3 (tensin3 with an N-terminal BirA* plus myc tag) (human) (UniProt Q68CZ2)
# Assay: proximity labelling; SILAC BioID in U2OS cells stably expressing myc-BirA*-tensin3 against myc-BirA* alone; biotin 100 µM for 16 h, NeutrAvidin capture, mass spectrometry; enriched at heavy-to-light ratio ≥2.5
row,binding,Molecule
1,binds,talin1 (from UniProt Q9Y490 1-2541)
2,binds,talin2 (from UniProt Q9Y4G6 1-2542)
3,binds,"KANK2 (protein, UniProt Q63ZY3 1-851) MAQVLHVPAPFPGTPGPASPPAFPAKDPDPPYSVETPYGYRLDLDFLKYVDDIEKGHTLRRVAVQRRPRLSSLPRGPGSWWTSTESLCSNASGDSRHSAYSYCGRGFYPQYGALETRGGFNPRVERTLLDARRRLEDQAATPTGLGSLTPSAAGSTASLVGVGLPPPTPRSSGLSTPVPPSAGHLAHVREQMAGALRKLRQLEEQVKLIPVLQVKLSVLQEEKRQLTVQLKSQKFLGHPTAGRGRSELCLDLPDPPEDPVALETRSVGTWVRERDLGMPDGEAALAAKVAVLETQLKKALQELQAAQARQADPQPQAWPPPDSPVRVDTVRVVEGPREVEVVASTAAGAPAQRAQSLEPYGTGLRALAMPGRPESPPVFRSQEVVETMCPVPAAATSNVHMVKKISITERSCDGAAGLPEVPAESSSSPPGSEVASLTQPEKSTGRVPTQEPTHREPTRQAASQESEEAGGTGGPPAGVRSIMKRKEEVADPTAHRRSLQFVGVNGGYESSSEDSSTAENISDNDSTENEAPEPRERVPSVAEAPQLRPAGTAAAKTSRQECQLSRESQHIPTAEGASGSNTEEEIRMELSPDLISACLALEKYLDNPNALTERELKVAYTTVLQEWLRLACRSDAHPELVRRHLVTFRAMSARLLDYVVNIADSNGNTALHYSVSHANFPVVQQLLDSGVCKVDKQNRAGYSPIMLTALATLKTQDDIETVLQLFRLGNINAKASQAGQTALMLAVSHGRVDVVKALLACEADVNVQDDDGSTALMCACEHGHKEIAGLLLAVPSCDISLTDRDGSTALMVALDAGQSEIASMLYSRMNIKCSFAPMSDDESPTSSSAEE"

# These are yes or no findings as the source states them, for the method shown. In cells and extracts the contact can be indirect. Here binding means that the protein was enriched with, or labelled near, the bait; the list need not be complete.
